Our source for the binding signal (log2 relative supershift) values is article PMC12370185.

The list shows a part of the results. For some of these results: At the low end of the ranking the order means little.

Common to all, as to conditions: 10 mM Tris-Cl pH 7.5, 50 mM NaCl, 1 mM DTT, 0.25 mg/ml BSA, 2 mM MgCl2, 0.025% Nonidet P-40, 5% glycerol; 28 nM nucleosome library; 10 min on ice then 30 min …; high values mean tight binding; double strand, one strand shown
Assay [1] concerns KLF4 + histone octamer. The assay can be described thus: EMSA with sequencing. A general note: A gel shift assay detects complexes by their altered migration in electrophoresis.
Assay [2] concerns SOX2 + histone octamer. The assay can be described thus: EMSA with sequencing.
Assay [3] deals with c-MYC + MAX + histone octamer. The assay can be described thus: EMSA with sequencing.
Assay [4] concerns OCT4 + histone octamer. Put plainly: Pioneer-seq (competitive nucleosome EMSA with sequencing).
The test system of assay [5] is c-MYC + MAX + histone octamer. Described as above.

Turning to “GATGGACCCTATACGCGGCCAAGTGAGAAAGGCAGAAGAACTGAGTTAGCCCAAGGCCACCCAGAGAACTGTCCTGTACACATGTGCATGGATGATGCATCCAGAGAGTGTGCTGAAGGCTGAGTCACCTCCACCCCCAACACCAACAGGGAGGATAATGAGTCAACAGGATTACCTCTTCTCAGCCCTTCTAACTTACAGCTGGAGGGCTGCCAGTCGGATAGTGTTCC”, the binding signal (log2 relative supershift) in assay [1] was 1.57; in assay [2], 0.324; in assay [3] it was 0.123; in assay [4], -0.196.
Regarding “GATGGACCCTATACGCGGCAAAATCACAACCTACAAGTACAGAAGAGATTGCTACAGAGAAGGGTGGTGCTCCACACTCAGAGGCATGAATAAAAGGCCTAAGAGAGCACACAAGGCAATGATTAAGATGCAAATACGCCTTTCAGGTTGGCTCCTTCCTATCTTTCCATCTTGTGCTAAGCAGTGAGAAGAAAAATATTTATCCACAGCTGCCAGTCGGATAGTGTTCC”, the binding signal (log2 relative supershift) in assay [1] is 0.642; in assay [2], 0.0813; in assay [4], -0.0814; in assay [5], -0.0592.
For “GATGGACCCTATACGCGGCCTACAATAATGATGTACAACATCCATCCTCACACTCAGGCAATAAGCTTTGTTTCTCATGCTCATGGGCAAGTGGTTCAGCTGAGTGGCTCTGCATCAGGCTGCAGTTGTTCAGTTGCCTGTAGTAGTTTGCAAGGGACTGAATGTGTCACCCCTCCCCCATTCATATGTTGAAAGCCTAACCTTCAATGTTGCCAGTCGGATAGTGTTCC”, in that order: 1.35, 0.966, -0.5 and -0.232.
Take “GATGGACCCTATACGCGGCTCTAGACTCAGGGCTCCTCCCTCAACCAGATCCAGCCTGACAGCTCCTCTGTCTCCACCTGGCCTCCCTGCCAGGCCTCCTCAGAGTTAACAGCGGCCTGGCCTCACCCTTGGCCAGCAGTTGCAAGTCCAAACAGGCTTCGCCCACATTCCCTGGCTGCTCTCCAGCCCGCAGCAGAGACAACAAAGTTCTGCCAGTCGGATAGTGTTCC”: the binding signal (log2 relative supershift) in assay [1] was 2.42; in assay [2], 0.244; in assay [3], 0.427; in assay [4], -0.385.
For “GATGGACCCTATACGCGGCCAAACTGATTTTGGGAAGCAGTCTAGAAAGATGCTTGAAAAATGTACTGATGTGTAATGCCAGCAGCAGGCCATTGTCATGGTATGGAATAATGGTGACTGAAAGTCATTCTCCCTTGCTTGGGATGATCTGTCTTAAGCATGAGCAGCTTGAGGCTGAATTGTAGACAATAAAACGTGAGTCCAATGACATGCCAGTCGGATAGTGTTCC”, in that order: 0.596, 0.975, 0.502 and -0.436.
The matching figures for “GATGGACCCTATACGCGGCTCCTCAAACCAGTGGCTTTGTTGGGTAGCACAAGGAGTTGGTCAAGAATATCAGCTGCCACACAGTCTTCAGTCCTGCTCATGAGCAGACAGGCGTACCACTTTTACTCAGATACCTAGCATTTCAATGCTCATTTAAATAATTCAGACTATACACATGTCTTAGCAGATTTTCCTCTTCCAGCCAACAATTGCCAGTCGGATAGTGTTCC”: 0.717, 1.14, 0.398 and -0.146.
On to “GATGGACCCTATACGCGGCGTAGGCTCTGGCCCCTTTCCTCCTGCTCTTCCTCTGAGTGCCTCCACCCTTATTCACAGGCTCACTCTTGTCTCAGAGCCTCTGCCTAGACTGCTCTTCCCAGCCTCCAAACCCACTTTCCAGGGCTGATCTGCATTCACACTTCAATGTTCTTCTCTGATCACCCACCCACCCCACCTCAAGAACAATACTGCCAGTCGGATAGTGTTCC”, for which the binding signal (log2 relative supershift) is 2.68 in assay [1], 2.34 in assay [2], 0.525 in assay [3] and -1.04 in assay [4].
The matching figures for “GATGGACCCTATACGCGGCCCAGGCTAGTGAGGAAAATGAGGGAATGAGAAAGGAGGATGAGGAGGGCTTTGAGGGTGATGAGTCAGATGCAGGCACAGCCTTGGTAGTGGGTTTTAGTCCGTGCTCTGAGATGCCCAGTTTTTCATGAGAAAGAAAAGCATGTATGCCCACCCAGAAGAATGATTGTTAAGACAGGCTAAGAATATTGATGCCAGTCGGATAGTGTTCC”: 2.32, 1.48, 0.376 and -0.0385.
For “GATGGACCCTATACGCGGCCAAGCCCATAGATGAATAGAATGACAGGGAAGGGCATCTCAGTAGAAGAGAAATTTCAACAAGTGTATGGAAGTACAAGAGAGTAGCACAAGGACAGGATGACACAGCCCAAGTACCTAGAGCCAATCTGCACATGGAAAATTCTAAGAGGTGGGTGGAGGATGGGGAGGGAGCATGGCCCTAAAAATGAGTGCCAGTCGGATAGTGTTCC”, in that order: 2.69, 0.744, 0.432 and -0.265.
As to “GATGGACCCTATACGCGGCCCCCTAACAAACAACTTTGCCTCAAAGACACCCAAACAACTGTGCTGAACATTTTCACCCTCCCTTCCTCCTTTCCTTCCCTTCTTCACACAGGATCAGACTTGCTTTGTGGTCTGATGGTTCTCCCGGCTTTATTCAGAGCCTTCTGTTTTCCCTCACACAGGTGTTTCCTCCTGATAAGTCATTACACTTGCCAGTCGGATAGTGTTCC”, the binding signal (log2 relative supershift) in assay [1] is 1.88; in assay [2], 0.595; in assay [3], 0.119; in assay [4] it was -0.452.
